From publication PMC10949598
Results are given in words; binding and its absence hold for the method and conditions named. In cells and extracts the contact can be indirect. A result given as binding can be weak or reduced; the word gives no strength.

The chains behind the UniProt entries cited, without tags or fusion partners. Where a name states a change or a piece, a line headed by the entry shows the natural chain unless it says otherwise.
UniProt A0PK00: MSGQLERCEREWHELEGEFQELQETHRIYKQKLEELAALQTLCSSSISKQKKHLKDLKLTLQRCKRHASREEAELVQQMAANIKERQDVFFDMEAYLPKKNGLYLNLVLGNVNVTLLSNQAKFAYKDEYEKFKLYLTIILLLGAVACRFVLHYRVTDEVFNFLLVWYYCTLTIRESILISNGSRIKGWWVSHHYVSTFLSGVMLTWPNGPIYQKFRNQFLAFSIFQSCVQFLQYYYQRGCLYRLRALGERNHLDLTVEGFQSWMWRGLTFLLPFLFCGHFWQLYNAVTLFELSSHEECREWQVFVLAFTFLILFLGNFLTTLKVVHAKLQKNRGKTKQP
UniProt P35579: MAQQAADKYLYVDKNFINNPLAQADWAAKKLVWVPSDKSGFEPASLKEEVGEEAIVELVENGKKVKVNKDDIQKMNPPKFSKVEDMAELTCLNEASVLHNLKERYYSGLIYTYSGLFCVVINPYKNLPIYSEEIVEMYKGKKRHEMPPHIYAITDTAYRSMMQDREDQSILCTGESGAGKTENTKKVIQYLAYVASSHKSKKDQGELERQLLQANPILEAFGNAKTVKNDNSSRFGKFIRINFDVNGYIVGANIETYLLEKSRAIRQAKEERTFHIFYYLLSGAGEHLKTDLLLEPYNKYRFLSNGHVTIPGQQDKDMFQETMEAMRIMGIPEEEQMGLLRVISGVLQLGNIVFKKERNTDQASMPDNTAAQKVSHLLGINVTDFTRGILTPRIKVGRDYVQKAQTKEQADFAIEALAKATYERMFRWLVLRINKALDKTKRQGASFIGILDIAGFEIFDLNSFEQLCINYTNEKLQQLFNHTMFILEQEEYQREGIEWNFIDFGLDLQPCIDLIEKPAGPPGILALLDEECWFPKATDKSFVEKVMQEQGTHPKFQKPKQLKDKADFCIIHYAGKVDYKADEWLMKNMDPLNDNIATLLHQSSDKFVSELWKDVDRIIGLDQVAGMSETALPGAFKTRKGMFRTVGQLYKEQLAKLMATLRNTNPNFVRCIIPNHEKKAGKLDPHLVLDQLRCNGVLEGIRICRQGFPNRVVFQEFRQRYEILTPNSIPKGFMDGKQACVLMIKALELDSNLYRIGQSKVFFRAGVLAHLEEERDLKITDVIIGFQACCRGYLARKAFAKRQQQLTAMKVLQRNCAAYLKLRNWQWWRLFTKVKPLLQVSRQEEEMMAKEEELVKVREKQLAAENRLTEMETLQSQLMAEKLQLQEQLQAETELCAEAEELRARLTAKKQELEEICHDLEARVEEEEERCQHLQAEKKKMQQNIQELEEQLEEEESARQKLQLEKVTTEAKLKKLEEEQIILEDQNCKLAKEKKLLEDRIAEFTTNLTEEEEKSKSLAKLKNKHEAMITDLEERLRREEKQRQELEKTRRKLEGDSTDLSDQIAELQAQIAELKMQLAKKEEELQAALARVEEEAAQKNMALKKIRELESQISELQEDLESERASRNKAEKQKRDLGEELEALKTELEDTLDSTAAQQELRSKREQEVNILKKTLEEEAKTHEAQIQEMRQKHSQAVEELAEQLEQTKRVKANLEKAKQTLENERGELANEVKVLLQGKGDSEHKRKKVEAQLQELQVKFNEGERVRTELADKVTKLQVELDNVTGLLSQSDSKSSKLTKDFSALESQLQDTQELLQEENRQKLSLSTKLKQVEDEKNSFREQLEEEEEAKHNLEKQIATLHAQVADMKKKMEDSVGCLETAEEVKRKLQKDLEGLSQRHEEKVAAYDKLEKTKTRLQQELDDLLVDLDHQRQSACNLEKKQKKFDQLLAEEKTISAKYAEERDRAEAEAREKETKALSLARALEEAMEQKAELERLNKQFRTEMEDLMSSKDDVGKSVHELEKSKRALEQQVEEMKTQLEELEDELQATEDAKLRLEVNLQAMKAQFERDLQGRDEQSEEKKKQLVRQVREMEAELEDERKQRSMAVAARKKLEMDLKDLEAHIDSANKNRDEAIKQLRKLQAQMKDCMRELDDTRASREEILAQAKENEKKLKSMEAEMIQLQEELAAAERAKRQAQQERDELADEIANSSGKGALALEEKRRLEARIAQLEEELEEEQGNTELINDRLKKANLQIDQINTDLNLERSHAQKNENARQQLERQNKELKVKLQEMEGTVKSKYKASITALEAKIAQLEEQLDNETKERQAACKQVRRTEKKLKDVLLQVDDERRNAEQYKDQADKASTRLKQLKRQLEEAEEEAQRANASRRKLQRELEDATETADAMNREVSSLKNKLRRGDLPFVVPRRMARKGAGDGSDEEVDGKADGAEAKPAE

Target: TMEM120B protein coupled to a GST label (human) (UniProt A0PK00)
Assay: pull-down; GST-TMEM120B on glutathione sepharose magnetic beads, incubated overnight at 4 °C with SK-BR-3 lysate transfected with Myc-MYH9; western blotting and Coomassie staining; only the target purified

binding: binds
Substance: Myc-MYH9 (from UniProt P35579 1-1960)
